PubChem BioAssay AID1259308 | NCATS | 2017
The deposit covers about 59,000 reagents; below is a part drawn at random. Over the whole deposit, about 1,510 (2.6%) got an active call. 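Calls use total luciferase alone and ignore viability, so some active siRNAs may act by altering cell number.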 The numbers tell different reagents against one gene apart. Not all columns of the deposit are shown. Reagent sequences are not shown.

- Aim: 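Candidate targets for better recombinant protein yield in mammalian cells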 (primary screen)
- Cell system: human HEK293 embryonic kidney cells stably expressing firefly luciferase (HEK-CMV-Luc2-Hygro)
- Reagents: single siRNA against human genes, 0.8 pmol siRNA per well
- Duration: 72 h
- Detection: 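Luciferase light (ONE-Glo) measured on one replicate plate set and viability (CellTiter-Glo) on the other, scaled to a negative control siRNA, with robust z-scores and luciferase per cell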
- Reading the numbers: total luciferase, z-score and total luciferase, % of control: higher = more reporter protein produced
- Hit rule: 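Active when the median/MAD z-score for overall luciferase is greater than 3; a gene was taken forward for validation with new siRNAs if at least two of its three siRNAs passed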
- Calls: active = raised luciferase; inactive = no rise

| Gene | reagent | total luciferase, z-score | total luciferase, % of control | Outcome |
| --- | --- | --- | --- | --- |
| CACNA1E (calcium voltage-gated channel subunit alpha1 E) | 1 | 0.202 | 85.9 | inactive |
| CACNA1E (calcium voltage-gated channel subunit alpha1 E) | 2 | 0.082 | 83.5 | inactive |
| CACNA1E (calcium voltage-gated channel subunit alpha1 E) | 3 | 0.214 | 86.1 | inactive |
| DUSP7 (dual specificity phosphatase 7) | 1 | 0.774 | 97.3 | inactive |
| DUSP7 (dual specificity phosphatase 7) | 2 | -0.967 | 62.7 | inactive |
| DUSP7 (dual specificity phosphatase 7) | 3 | -2.03 | 41.4 | inactive |
| USH2A (usherin) | 1 | -1.93 | 43.5 | inactive |
| USH2A (usherin) | 2 | -0.677 | 68.4 | inactive |
| USH2A (usherin) | 3 | 0.28 | 87.5 | inactive |
| HECW2 | 1 | -0.219 | 77.5 | inactive |
| HECW2 | 2 | -0.26 | 76.7 | inactive |
| HECW2 | 3 | -0.384 | 74.2 | inactive |
| C10orf143 (chromosome 10 open reading frame 143) | 1 | 0.246 | 86.8 | inactive |
| C10orf143 (chromosome 10 open reading frame 143) | 2 | -0.202 | 77.9 | inactive |
| C10orf143 (chromosome 10 open reading frame 143) | 3 | -0.0352 | 81.2 | inactive |
| CHCT1 (CHD1 helical C-terminal domain containing 1) | 1 | 0.0341 | 82.6 | inactive |
| CHCT1 (CHD1 helical C-terminal domain containing 1) | 2 | 0.614 | 94.1 | inactive |
| CHCT1 (CHD1 helical C-terminal domain containing 1) | 3 | 0.0166 | 82.2 | inactive |
| OR2L8 (olfactory receptor family 2 subfamily L member 8) | 1 | -0.944 | 63.1 | inactive |
| OR2L8 (olfactory receptor family 2 subfamily L member 8) | 2 | -0.751 | 67 | inactive |
| OR2L8 (olfactory receptor family 2 subfamily L member 8) | 3 | -0.517 | 71.6 | inactive |
| SKIL (SKI like proto-oncogene) | 1 | 4.87 | 179 | active |
| SKIL (SKI like proto-oncogene) | 2 | 0.209 | 86.1 | inactive |
| SKIL (SKI like proto-oncogene) | 3 | -0.33 | 75.3 | inactive |
| CACNG7 (calcium voltage-gated channel auxiliary subunit gamma 7) | 1 | 2.46 | 131 | inactive |
| CACNG7 (calcium voltage-gated channel auxiliary subunit gamma 7) | 2 | 0.403 | 89.9 | inactive |
| CACNG7 (calcium voltage-gated channel auxiliary subunit gamma 7) | 3 | 0.761 | 97 | inactive |
| S100A3 (S100 calcium binding protein A3) | 1 | 0.217 | 86.2 | inactive |
| S100A3 (S100 calcium binding protein A3) | 2 | 0.589 | 93.6 | inactive |
| S100A3 (S100 calcium binding protein A3) | 3 | 1.07 | 103 | inactive |
| CGREF1 (cell growth regulator with EF-hand domain 1) | 1 | -0.851 | 65 | inactive |
| CGREF1 (cell growth regulator with EF-hand domain 1) | 2 | -0.253 | 76.9 | inactive |
| CGREF1 (cell growth regulator with EF-hand domain 1) | 3 | -0.505 | 71.8 | inactive |
| KIF6 (kinesin family member 6) | 1 | 0.342 | 88.7 | inactive |
| KIF6 (kinesin family member 6) | 2 | -0.321 | 75.5 | inactive |
| KIF6 (kinesin family member 6) | 3 | 0.471 | 91.3 | inactive |
| HOXA13 (homeobox A13) | 1 | 0.449 | 90.8 | inactive |
| HOXA13 (homeobox A13) | 2 | -1.64 | 49.3 | inactive |
| HOXA13 (homeobox A13) | 3 | -0.39 | 74.1 | inactive |
| BAZ2B-AS1 (BAZ2B antisense RNA 1) | 1 | 0.406 | 90 | inactive |
| BAZ2B-AS1 (BAZ2B antisense RNA 1) | 2 | 0.84 | 98.6 | inactive |
| BAZ2B-AS1 (BAZ2B antisense RNA 1) | 3 | 0.398 | 89.8 | inactive |
| ANP32D (acidic nuclear phosphoprotein 32 family member D) | 1 | -0.571 | 70.5 | inactive |
| ANP32D (acidic nuclear phosphoprotein 32 family member D) | 2 | -0.897 | 64 | inactive |
| ANP32D (acidic nuclear phosphoprotein 32 family member D) | 3 | 0.682 | 95.5 | inactive |
| CSTB (cystatin B) | 1 | 0.00458 | 82 | inactive |
| CSTB (cystatin B) | 2 | 2.13 | 124 | inactive |
| CSTB (cystatin B) | 3 | 0.602 | 93.9 | inactive |
| FBXO40 (F-box protein 40) | 1 | -0.644 | 69.1 | inactive |
| FBXO40 (F-box protein 40) | 2 | 0.523 | 92.3 | inactive |
| FBXO40 (F-box protein 40) | 3 | -0.182 | 78.3 | inactive |
| LTF (lactotransferrin) | 1 | 0.292 | 87.7 | inactive |
| LTF (lactotransferrin) | 2 | -1.54 | 51.3 | inactive |
| LTF (lactotransferrin) | 3 | -0.0425 | 81 | inactive |
| FABP4 (fatty acid binding protein 4) | 1 | -0.747 | 67 | inactive |
| FABP4 (fatty acid binding protein 4) | 2 | -1.58 | 50.5 | inactive |
| FABP4 (fatty acid binding protein 4) | 3 | 1.86 | 119 | inactive |
